# The other results are listed elsewhere or left out.
# B1: Epa2 (Candida glabrata) (protein)
# chain: MGSSHHHHHHSSGLVPRGSHMASSKDPTSFPMGCSPQVLKTQPGLAVKLYSYGHPVPGCAYNTYQYPDFPRSGYKKERKLADITGVNGRIDIDLKPNDPCRVLSGNLPSNYNYQNTLTYTNFTMILYGYFQPKVTGYHTFNLEADDLLFMNLGAGNAFDCCRAESTLDNFGNYQSYSIWGTDKATADLTVFLVSGIYYPIRLFYVNRDNNAVLDFSFSTEFNKEIIHDFTSYFFSASDEEQCPGNI
# Legend:
# Assay in all cases: glycan array binding signal (z-score within array); higher = stronger binding
# Settings in all cases: glycan notation: IUPAC condensed, linker removed
# [1] = biological target: Fuc(a1-2)[Gal(a1-3)]Gal(b1-4)GlcNAc(b1-2)Man(a1-3)[Fuc(a1-2)[Gal(a1-3)]Gal(b1-4)GlcNAc(b1-2)Man(a1-6)]Man(b1-4)GlcNAc(b1-4)GlcNAc
# Method in brief: (§1)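 Glycan array binding is given as a within-array Z-score, which can be read as non-binding when negative. The arrays, 3228 of them, came from the Consortium for Functional Glycomics database and were retained only where the protein sequence was available. Z-scores were averaged across arrays of the same protein sequence at different concentrations or buffers and across linkers.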
# [2] = biological target: Fuc(a1-2)[Gal(a1-3)]Gal(b1-4)GlcNAc(b1-2)Man(a1-3)[Fuc(a1-2)[Gal(a1-3)]Gal(b1-4)GlcNAc(b1-2)Man(a1-6)]Man(b1-4)GlcNAc(b1-4)[Fuc(a1-6)]GlcNAc
# Method in brief: as §1
# [3] = biological target: Fuc(a1-2)[Gal(a1-3)]Gal(b1-4)GlcNAc(b1-3)GalNAc
# Method in brief: as §1
# [4] = biological target: Fuc(a1-2)[Gal(a1-3)]Gal(b1-4)GlcNAc(b1-3)[Fuc(a1-2)[Gal(a1-3)]Gal(b1-4)GlcNAc(b1-6)]GalNAc
# Method in brief: as §1
# [5] = biological target: Fuc(a1-2)[Gal(a1-3)]Gal(b1-4)GlcNAc(b1-6)GalNAc
# Method in brief: as §1
# [6] = biological target: Fuc(a1-2)[Gal(a1-3)]Gal(b1-4)[Fuc(a1-3)]Glc
# Method in brief: as §1
# [7] = biological target: Fuc(a1-2)[Gal(a1-3)]Gal(b1-4)[Fuc(a1-3)]GlcNAc
# Method in brief: as §1
# [8] = biological target: Fuc(a1-2)[Gal(a1-3)]Gal(b1-4)[Fuc(a1-3)]GlcNAc(b1-3)GalNAc
# Method in brief: as §1
# [9] = biological target: Fuc(a1-2)[Gal(a1-4)]Gal(b1-4)GlcNAc
# Method in brief: as §1
# [10] = biological target: Fuc(a1-2)[GalNAc(a1-3)]Gal
# Method in brief: as §1
# [11] = biological target: Fuc(a1-2)[GalNAc(a1-3)]Gal(b1-3)GalNAc(a1-3)[Fuc(a1-2)]Gal(b1-4)GlcNAc
# Method in brief: as §1
# [12] = biological target: Fuc(a1-2)[GalNAc(a1-3)]Gal(b1-3)GalNAc(b1-3)Gal(a1-4)Gal(b1-4)Glc
# Method in brief: as §1
# [13] = biological target: Fuc(a1-2)[GalNAc(a1-3)]Gal(b1-3)GlcNAc
# Method in brief: as §1
# [14] = biological target: Fuc(a1-2)[GalNAc(a1-3)]Gal(b1-3)GlcNAc(b1-2)Man(a1-3)[Fuc(a1-2)[GalNAc(a1-3)]Gal(b1-3)GlcNAc(b1-2)Man(a1-6)]Man(b1-4)GlcNAc(b1-4)GlcNAc
# Method in brief: as §1
# [15] = biological target: Fuc(a1-2)[GalNAc(a1-3)]Gal(b1-3)GlcNAc(b1-2)Man(a1-3)[Fuc(a1-2)[GalNAc(a1-3)]Gal(b1-3)GlcNAc(b1-2)Man(a1-6)]Man(b1-4)GlcNAc(b1-4)[Fuc(a1-6)]GlcNAc
# Method in brief: as §1
# [16] = biological target: Fuc(a1-2)[GalNAc(a1-3)]Gal(b1-3)GlcNAc(b1-3)GalNAc
# Method in brief: as §1
# [17] = biological target: Fuc(a1-2)[GalNAc(a1-3)]Gal(b1-3)GlcNAc(b1-6)GalNAc
# Method in brief: as §1
# [18] = biological target: Fuc(a1-2)[GalNAc(a1-3)]Gal(b1-4)Glc
# Method in brief: as §1
# [19] = biological target: Fuc(a1-2)[GalNAc(a1-3)]Gal(b1-4)GlcNAc
# Method in brief: as §1
# [20] = biological target: Fuc(a1-2)[GalNAc(a1-3)]Gal(b1-4)GlcNAc(b1-2)Man
# Method in brief: as §1
# [21] = biological target: Fuc(a1-2)[GalNAc(a1-3)]Gal(b1-4)GlcNAc(b1-2)Man(a1-3)[Fuc(a1-2)[GalNAc(a1-3)]Gal(b1-4)GlcNAc(b1-2)Man(a1-6)]Man(b1-4)GlcNAc(b1-4)GlcNAc
# Method in brief: as §1
# [22] = biological target: Fuc(a1-2)[GalNAc(a1-3)]Gal(b1-4)GlcNAc(b1-2)Man(a1-3)[Fuc(a1-2)[GalNAc(a1-3)]Gal(b1-4)GlcNAc(b1-2)Man(a1-6)]Man(b1-4)GlcNAc(b1-4)[Fuc(a1-6)]GlcNAc
# Method in brief: as §1
# [23] = biological target: Fuc(a1-2)[GalNAc(a1-3)]Gal(b1-4)GlcNAc(b1-3)Gal(b1-4)GlcNAc
# Method in brief: as §1
# [24] = biological target: Fuc(a1-2)[GalNAc(a1-3)]Gal(b1-4)GlcNAc(b1-3)Gal(b1-4)GlcNAc(b1-3)Gal(b1-4)GlcNAc
# Method in brief: as §1
# [25] = biological target: Fuc(a1-2)[GalNAc(a1-3)]Gal(b1-4)GlcNAc(b1-3)GalNAc
# Method in brief: as §1
# [26] = biological target: Fuc(a1-2)[GalNAc(a1-3)]Gal(b1-4)GlcNAc(b1-3)[Fuc(a1-2)[GalNAc(a1-3)]Gal(b1-4)GlcNAc(b1-6)]GalNAc
# Method in brief: as §1
# [27] = biological target: Fuc(a1-2)[GalNAc(a1-3)]Gal(b1-4)GlcNAc(b1-6)GalNAc
# Method in brief: as §1
# [28] = biological target: Fuc(a1-2)[GalNAc(a1-3)]Gal(b1-4)[Fuc(a1-3)]GlcNAc
# Method in brief: as §1
# [29] = biological target: Fuc(a1-2)[GalNAc(a1-3)]Gal(b1-4)[Fuc(a1-3)]GlcNAc(b1-3)GalNAc
# Method in brief: as §1
# [30] = biological target: Fuc(a1-2)[GalNAc(a1-4)]Gal(b1-4)GlcNAc
# Method in brief: as §1
# [31] = biological target: Fuc(a1-2)[GalNAc(b1-3)]Gal
# Method in brief: as §1
# [32] = biological target: Fuc(a1-3)GlcNAc
# Method in brief: as §1
# [33] = biological target: Fuc(a1-3)[Gal(b1-4)]Glc6S
# Method in brief: as §1
# [34] = biological target: Fuc(a1-3)[Gal(b1-4)]GlcNAc
# Method in brief: as §1
# [35] = biological target: Fuc(a1-3)[Gal(b1-4)]GlcNAc(b1-2)Man
# Method in brief: as §1
# [36] = biological target: Fuc(a1-3)[Gal(b1-4)]GlcNAc(b1-2)Man(a1-3)[Fuc(a1-3)[Gal(b1-4)]GlcNAc(b1-2)Man(a1-6)]Man(b1-4)GlcNAc(b1-4)GlcNAc
# Method in brief: as §1
# [37] = biological target: Fuc(a1-3)[Gal(b1-4)]GlcNAc(b1-2)Man(a1-3)[Fuc(a1-3)[Gal(b1-4)]GlcNAc(b1-2)Man(a1-6)]Man(b1-4)GlcNAc(b1-4)[Fuc(a1-6)]GlcNAc
# Method in brief: as §1
# [38] = biological target: Fuc(a1-3)[Gal(b1-4)]GlcNAc(b1-3)Gal(b1-3)[Fuc(a1-4)]GlcNAc
# Method in brief: as §1
# [39] = biological target: Fuc(a1-3)[Gal(b1-4)]GlcNAc(b1-3)Gal(b1-4)[Fuc(a1-3)]GlcNAc
# Method in brief: as §1
# [40] = biological target: Fuc(a1-3)[Gal(b1-4)]GlcNAc(b1-3)Gal(b1-4)[Fuc(a1-3)]GlcNAc(b1-3)Gal(b1-4)[Fuc(a1-3)]GlcNAc
# Method in brief: as §1
# [41] = biological target: Fuc(a1-3)[Gal(b1-4)]GlcNAc(b1-3)GalNAc
# Method in brief: as §1
# [42] = biological target: Fuc(a1-3)[Gal(b1-4)]GlcNAc(b1-6)GalNAc
# Method in brief: as §1
# [43] = biological target: Fuc(a1-3)[Gal(b1-4)]GlcNAc(b1-6)[Gal(b1-3)GlcNAc(b1-3)]Gal(b1-4)Glc
# Method in brief: as §1
# [44] = biological target: Fuc(a1-3)[Gal(b1-4)]GlcNAc6S
# Method in brief: as §1
# [45] = biological target: Fuc(a1-3)[Gal3S(b1-4)]Glc
# Method in brief: as §1
# [46] = biological target: Fuc(a1-3)[Gal3S(b1-4)]GlcNAc
# Method in brief: as §1
# [47] = biological target: Fuc(a1-3)[Gal3S(b1-4)]GlcNAc6S
# Method in brief: as §1
# [48] = biological target: Fuc(a1-3)[GalNAc(b1-4)]GlcNAc
# Method in brief: as §1
# [49] = biological target: Fuc(a1-3)[GalNAc(b1-4)]GlcNAc6S
# Method in brief: as §1
# [50] = biological target: Fuc(a1-4)GlcNAc
# Method in brief: as §1
# [51] = biological target: Fuc(b1-3)GlcNAc
# Method in brief: as §1
# [52] = biological target: Gal(a1-2)Gal
# Method in brief: as §1
# [53] = biological target: Gal(a1-3)Gal
# Method in brief: as §1
# [54] = biological target: Gal(a1-3)Gal(b1-3)GlcNAc
# Method in brief: as §1
# [55] = biological target: Gal(a1-3)Gal(b1-3)GlcNAc(b1-2)Man
# Method in brief: as §1
# [56] = biological target: Gal(a1-3)Gal(b1-3)GlcNAc(b1-2)Man(a1-3)[Gal(a1-3)Gal(b1-3)GlcNAc(b1-2)Man(a1-6)]Man(b1-4)GlcNAc(b1-4)GlcNAc
# Method in brief: as §1
# [57] = biological target: Gal(a1-3)Gal(b1-3)GlcNAc(b1-3)GalNAc
# Method in brief: as §1
# [58] = biological target: Gal(a1-3)Gal(b1-3)GlcNAc(b1-6)GalNAc
# Method in brief: as §1
# [59] = biological target: Gal(a1-3)Gal(b1-3)[Fuc(a1-4)]GlcNAc(b1-2)Man(a1-3)[Gal(a1-3)Gal(b1-3)[Fuc(a1-4)]GlcNAc(b1-2)Man(a1-6)]Man(b1-4)GlcNAc(b1-4)GlcNAc
# Method in brief: as §1
# [60] = biological target: Gal(a1-3)Gal(b1-4)Glc
# Method in brief: as §1
binder,measurement,setting,value
B1,glycan array binding signal (z-score),[1],-0.732
same,glycan array binding signal (z-score),[2],-0.432
same,glycan array binding signal (z-score),[3],-0.942
same,glycan array binding signal (z-score),[4],1.17
same,glycan array binding signal (z-score),[5],0.366
same,glycan array binding signal (z-score),[6],-0.56
same,glycan array binding signal (z-score),[7],0.294
same,glycan array binding signal (z-score),[8],-0.606
same,glycan array binding signal (z-score),[9],0.493
same,glycan array binding signal (z-score),[10],-0.479
same,glycan array binding signal (z-score),[11],-0.153
same,glycan array binding signal (z-score),[12],-0.252
same,glycan array binding signal (z-score),[13],-0.076
same,glycan array binding signal (z-score),[14],-0.78
same,glycan array binding signal (z-score),[15],-0.638
same,glycan array binding signal (z-score),[16],0.267
same,glycan array binding signal (z-score),[17],-0.678
same,glycan array binding signal (z-score),[18],-0.646
same,glycan array binding signal (z-score),[19],-0.115
same,glycan array binding signal (z-score),[20],-1.24
same,glycan array binding signal (z-score),[21],0.144
same,glycan array binding signal (z-score),[22],-0.26
same,glycan array binding signal (z-score),[23],-0.172
same,glycan array binding signal (z-score),[24],1.9
same,glycan array binding signal (z-score),[25],-0.64
same,glycan array binding signal (z-score),[26],-0.154
same,glycan array binding signal (z-score),[27],-1.01
same,glycan array binding signal (z-score),[28],-0.129
same,glycan array binding signal (z-score),[29],4.26
same,glycan array binding signal (z-score),[30],-0.721
same,glycan array binding signal (z-score),[31],-0.637
same,glycan array binding signal (z-score),[32],0.379
same,glycan array binding signal (z-score),[33],0.453
same,glycan array binding signal (z-score),[34],-0.543
same,glycan array binding signal (z-score),[35],-1.15
same,glycan array binding signal (z-score),[36],-0.156
same,glycan array binding signal (z-score),[37],-0.153
same,glycan array binding signal (z-score),[38],-0.341
same,glycan array binding signal (z-score),[39],-0.109
same,glycan array binding signal (z-score),[40],-1.39
same,glycan array binding signal (z-score),[41],0.659
same,glycan array binding signal (z-score),[42],2.23
same,glycan array binding signal (z-score),[43],-0.228
same,glycan array binding signal (z-score),[44],1.09
same,glycan array binding signal (z-score),[45],0.905
same,glycan array binding signal (z-score),[46],-0.168
same,glycan array binding signal (z-score),[47],-0.922
same,glycan array binding signal (z-score),[48],0.253
same,glycan array binding signal (z-score),[49],-0.523
same,glycan array binding signal (z-score),[50],-0.255
same,glycan array binding signal (z-score),[51],0.001
same,glycan array binding signal (z-score),[52],-1.68
same,glycan array binding signal (z-score),[53],0.044
same,glycan array binding signal (z-score),[54],-0.18
same,glycan array binding signal (z-score),[55],0.508
same,glycan array binding signal (z-score),[56],1.71
same,glycan array binding signal (z-score),[57],-0.007
same,glycan array binding signal (z-score),[58],0.247
same,glycan array binding signal (z-score),[59],-0.479
same,glycan array binding signal (z-score),[60],-0.079

# Reprinted at random: two entries already listed.
binder,measurement,setting,value
B1,glycan array binding signal (z-score),[13],-0.076
same,glycan array binding signal (z-score),[15],-0.638

# Reformatted as tab-separated lines: part of the list above.
binder	measurement	setting	value
B1	glycan array binding signal (z-score)	[35]	-1.15
same	glycan array binding signal (z-score)	[55]	0.508

# Source: the supplement of paper PMC8728848
